Results deposited as PubChem BioAssay AID1508588 (Peter MacCallum Cancer Centre, 2020)

Test: 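Which gene losses make BRAF-mutant melanoma cells more responsive to vemurafenib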 (primary screen)
System: human WM266.4 melanoma cells (BRAF V600 mutant)
Reagents: siRNA pool against human genes, 40 nM
Timing: 96 h from transfection to read-out
Challenge: vemurafenib 300 nM (about IC25), added 48 h after transfection, for 48 h; comparison arm got DMSO vehicle only
Measured: 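Cell gain (DAPI nuclei at end minus before drug, mean of two replicates) and medium lactate by absorbance per cell, both as ratio to non-targeting siRNA, also grouped into fold-change classes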
Scale: cell gain with vemurafenib: higher = more cell gain than with non-targeting siRNA; lactate per cell with vemurafenib: higher = more lactate made per cell
Active means: 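Enhancement is called by pairing each knock-down's vehicle-arm and drug-arm fold-change classes for viability or glycolysis; which class combinations qualify is not given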
Calls: active = enhances vemurafenib effect; inactive = no enhancement seen
The whole screen tested about 18,000 reagents; this is an unselected part. In the full data, 790 (4.4%) are marked active. 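Calls rest on a combination of fold-change classes in drug and vehicle arms, not all shown here.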 Entries without a mark were called inactive.

no.	gene symbol	cell gain with vemurafenib	lactate per cell with vemurafenib
1	ACP6 (GeneID 51205)	1.12	1.09
2	ZNF493 (GeneID 284443)	0.58	0.6
3	LYRM7 (GeneID 90624)	0.15	1.28
4	PRAMEF10 (GeneID 343071)	0.7	0.88
5	GHRL (GeneID 51738)	0.84	0.62
6	CTCF (GeneID 10664)	0.02	1.72
7	LPCAT3 (GeneID 10162)	0.31	2.02
8	ATP6AP1 (GeneID 537)	0.58	1.08
9	H3-3B (GeneID 3021)	0.76	0.43
10	CTBP2 (GeneID 1488)	0.79	1.3
11	TCF15 (GeneID 6939)	1.28	0.68
12	CAVIN2 (GeneID 8436)	0.52	1.2
13	FHDC1 (GeneID 85462)	0.59	0.68
14	GTF2F2 (GeneID 2963)	1.12	0.4
15	DERL1 (GeneID 79139)	0.69	0.42
16	MSLNL (GeneID 401827)	0.67	0.98
17	RNF123 (GeneID 63891)	0.98	0.82
18	CLHC1 (GeneID 130162)	0.29	1.22
19	NCF2 (GeneID 4688)	0.81	0.96
20	FOXF1 (GeneID 2294)	0.82	0.72
21	PROM2 (GeneID 150696)	0.49	0.38
22	ICA1L (GeneID 130026)	0.41	0.96
23	POU4F3 (GeneID 5459)	0.99	0.86
24	AP4B1 (GeneID 10717)	0.13	2.38
25	LRRC61 (GeneID 65999)	-0.17	3.33
26	HMCES (GeneID 56941)	0.96	0.94
27	ASPNAT (GeneID 339983)	0.18	0.78
28	FAM181A (GeneID 90050)	0.06	1.25
29	DHX16 (GeneID 8449)	0.42	0.58
30	MAGEB4 (GeneID 4115)	0.71 (active)	0.1
31	UCHL5 (GeneID 51377)	0.41	0.66
32	EPS15L1 (GeneID 58513)	0.32	1.18
33	ADGRF3 (GeneID 165082)	0.48	0.84
34	NGFR (GeneID 4804)	0.66	0.54
35	DEFB103B (GeneID 55894)	0.29	1.15

Records above whose gene name starts with G or g (2):
gene symbol	cell gain with vemurafenib	lactate per cell with vemurafenib
GHRL (GeneID 51738)	0.84	0.62
GTF2F2 (GeneID 2963)	1.12	0.4

Next entries:
no.	gene symbol	cell gain with vemurafenib	lactate per cell with vemurafenib
36	RNF38 (GeneID 152006)	1.01	0.74
37	CLRN3 (GeneID 119467)	0.85	0.52
38	MAGEA9B (GeneID 728269)	0.95 (active)	0.44
39	LIPA (GeneID 3988)	0.87	0.98
40	C2CD4B (GeneID 388125)	0.44	0.89
41	GAN (GeneID 8139)	0.87	0.52
42	MRPL9 (GeneID 65005)	0.37 (active)	0.34
43	OR52B4 (GeneID 143496)	0.02	1.79
44	PDF (GeneID 64146)	0.79	0.94
45	DEXI (GeneID 28955)	0.94	0.46
46	CLNS1A (GeneID 1207)	0.63	0.71
47	LCA5 (GeneID 167691)	0.57	0.66
48	MXD3 (GeneID 83463)	1	0.73
49	LCN9 (GeneID 392399)	-0.09	1.73
50	RELCH (GeneID 57614)	0.07	0.55
51	VPS26A (GeneID 9559)	0.52	0.88
52	JAK3 (GeneID 3718)	0.66	1
53	ZNF821 (GeneID 55565)	1.11	0.72
54	RBSN (GeneID 64145)	-0.08	2.04
55	H2AC15 (GeneID 8330)	0.62	0.99
56	CTPS2 (GeneID 56474)	1.02	0.58
57	LILRB1 (GeneID 10859)	0.43	0.93
58	H3C6 (GeneID 8353)	0.84	0.7
59	BLID (GeneID 414899)	0.24	0.79
60	SLC33A2 (GeneID 113655)	0.86	0.51
61	TRAPPC3 (GeneID 27095)	0.47	0.61
62	GPC4 (GeneID 2239)	0.53	0.9
63	PNMA8B (GeneID 57469)	0.34	1.63
64	KAT2B (GeneID 8850)	0.59	1
65	PSMA1 (GeneID 5682)	-0.06	2.25
66	KCNB2 (GeneID 9312)	0.85	0.7
67	PGBD4 (GeneID 161779)	1	0.6
68	GPX8 (GeneID 493869)	0.57	1.72
69	MEIOC (GeneID 284071)	0.82	1.37
70	KLC1 (GeneID 3831)	0.51	1.62
71	PBOV1 (GeneID 59351)	0.71	0.69
72	ALOX15B (GeneID 247)	0.11	1.88
73	PNPLA7 (GeneID 375775)	0.43	1.88
74	ARSK (GeneID 153642)	1.01	0.7
75	PACRG (GeneID 135138)	0.58	0.99
76	RFX2 (GeneID 5990)	0.83	0.84
77	ZNF813 (GeneID 126017)	0.76	0.98
78	GAS8-AS1 (GeneID 750)	0.51	0.67
79	PDZD11 (GeneID 51248)	0.05	0.94
80	CASP8AP2 (GeneID 9994)	-0.02	1.69
81	TAAR1 (GeneID 134864)	0.74	0.82
82	ARHGAP19 (GeneID 84986)	0.55	1.17
83	RAP2B (GeneID 5912)	0.66	1.29
84	OR2B6 (GeneID 26212)	0.3	2.12
